The results in this text go back to paper PMC7181051, “Probing the Protein-Protein Interaction between the ATRXADD Domain and the Histone H3 Tail” (Molecules, 2020).

No constants are given. Whether binding was seen depends on the method and setting.

To fix the notation:
T1: ADD domain of ATRX (ATRXADD) (UniProt P46100)
T1 sequence: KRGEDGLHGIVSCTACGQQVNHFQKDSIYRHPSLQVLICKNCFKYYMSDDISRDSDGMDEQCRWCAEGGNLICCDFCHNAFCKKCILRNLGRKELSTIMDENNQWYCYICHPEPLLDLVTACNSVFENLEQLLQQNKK

B1: H3_(1-5) peptide (peptide)
peptide: ARTKQ
B2: H3_(7-11)K9me3 peptide (peptide)
peptide: ARKST
modifications: trimethyl-lysine at K9 of H3 (third residue of the peptide), printed K(me3)
B3: H3_(1-7)K4me3 peptide (peptide)
peptide: ARTKQTA
modifications: trimethyl-lysine at 4, printed K(me3)
B4: H3_(3-11)K9me3 peptide (peptide)
peptide: TKQTARKST
modifications: trimethyl-lysine at K9 of H3 (seventh residue of the peptide), printed K(me3)
B5: H3_(3-8) peptide (peptide)
peptide: TKQTAR
B6: H3_(2-6) peptide (peptide)
peptide: RTKQT

The first assay deals with T1, ADD domain of ATRX (ATRXADD). The assay can be described thus: fluorescence polarisation; competition as in the FP assay, two peptides (H3_(1-5) + H3_(7-11)K9me3) added in combination; both purified. In general terms: In fluorescence polarisation assays a small probe gives low polarisation when free and higher when bound to something large.
B1: the binding result is on record as “no binding (condition: added together with H3_(7-11)K9me3)”.
Same read-out and setting: next, B2: “no binding (condition: added together with H3_(1-5))”.

Another assay has the same target. Kind of assay: fluorescence polarisation; competition: ATRXADD (5 μM) and H3_(1-15)K9me3-FAM (0.75 μM) incubated 15 minutes at room temperature, then unlabeled peptide at varying concentrations; PBS; 384-well plate; both purified.
As for B3, the binding entry was “no binding (tested: 100 µM (highest concentration tested))”.
For B4, the binding result is listed as “no binding (tested: 100 µM (highest concentration tested))”.
Same read-out and setting: for B5 the value was “no binding (tested: 100 µM (highest concentration tested))”; for B6, “no binding (tested: 100 µM (highest concentration tested))”; for B2, “no binding (tested: 100 µM (highest concentration tested))”.
